The results in this text go back to publication PMC7824566.

By UniProt entry, the sequences of proteins in these tests, tags left out. Where a name states a change or a piece, a line headed by the entry shows the natural chain unless it says otherwise.
UniProt Q94IB6: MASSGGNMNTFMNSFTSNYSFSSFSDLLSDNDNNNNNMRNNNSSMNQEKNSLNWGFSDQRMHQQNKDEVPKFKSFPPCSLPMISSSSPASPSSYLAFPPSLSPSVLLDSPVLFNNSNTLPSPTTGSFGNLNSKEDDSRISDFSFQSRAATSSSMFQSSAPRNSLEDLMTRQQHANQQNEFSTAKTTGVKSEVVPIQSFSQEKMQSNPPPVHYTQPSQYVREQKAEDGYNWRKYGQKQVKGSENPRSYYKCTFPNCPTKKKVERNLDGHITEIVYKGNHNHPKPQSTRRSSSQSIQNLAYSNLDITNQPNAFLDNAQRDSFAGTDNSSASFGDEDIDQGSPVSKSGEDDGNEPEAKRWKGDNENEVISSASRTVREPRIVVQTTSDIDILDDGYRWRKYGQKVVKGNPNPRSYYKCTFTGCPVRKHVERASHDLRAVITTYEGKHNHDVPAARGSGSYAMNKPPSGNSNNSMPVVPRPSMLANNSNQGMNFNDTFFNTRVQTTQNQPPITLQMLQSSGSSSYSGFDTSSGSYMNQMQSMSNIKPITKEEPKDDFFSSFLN

The experiment deals with GST-WIPK (wound-induced protein kinase) (Nicotiana tabacum). The experiment in a line: pull-down; GST-NtMAPKs on Glutathione Sepharose 4 Fast Flow used to pull down MBP-NtWRKYs in vitro, 2 h at 4 °C; Western blot with anti-MBP antibody; both purified. For orientation: In western blotting, separated proteins are transferred to a membrane and probed.

These are yes or no findings as the source states them, for the method shown. Binding calls can cover weak binding; strength is not graded here.

In the case of MBP-NtWRKY6 (from UniProt Q94IB6), the binding result is “binds”.
